Measurements as given in paper PMC9278858.
Results are given in words; binding and its absence hold for the method and conditions named. Binding seen in cells or lysates may run through a third protein. Here binding means that the protein was enriched with, or labelled near, the bait; the list need not be complete. For some of these results: No binding means not detected with the bait. For some of these results: Sequences can lack the tags named with a protein.

T1: TAP-NTD (isolated N-terminal domain of Sen1, TAP-tagged, expressed from pGAL1) (S. cerevisiae) (UniProt Q00416)
T1 sequence: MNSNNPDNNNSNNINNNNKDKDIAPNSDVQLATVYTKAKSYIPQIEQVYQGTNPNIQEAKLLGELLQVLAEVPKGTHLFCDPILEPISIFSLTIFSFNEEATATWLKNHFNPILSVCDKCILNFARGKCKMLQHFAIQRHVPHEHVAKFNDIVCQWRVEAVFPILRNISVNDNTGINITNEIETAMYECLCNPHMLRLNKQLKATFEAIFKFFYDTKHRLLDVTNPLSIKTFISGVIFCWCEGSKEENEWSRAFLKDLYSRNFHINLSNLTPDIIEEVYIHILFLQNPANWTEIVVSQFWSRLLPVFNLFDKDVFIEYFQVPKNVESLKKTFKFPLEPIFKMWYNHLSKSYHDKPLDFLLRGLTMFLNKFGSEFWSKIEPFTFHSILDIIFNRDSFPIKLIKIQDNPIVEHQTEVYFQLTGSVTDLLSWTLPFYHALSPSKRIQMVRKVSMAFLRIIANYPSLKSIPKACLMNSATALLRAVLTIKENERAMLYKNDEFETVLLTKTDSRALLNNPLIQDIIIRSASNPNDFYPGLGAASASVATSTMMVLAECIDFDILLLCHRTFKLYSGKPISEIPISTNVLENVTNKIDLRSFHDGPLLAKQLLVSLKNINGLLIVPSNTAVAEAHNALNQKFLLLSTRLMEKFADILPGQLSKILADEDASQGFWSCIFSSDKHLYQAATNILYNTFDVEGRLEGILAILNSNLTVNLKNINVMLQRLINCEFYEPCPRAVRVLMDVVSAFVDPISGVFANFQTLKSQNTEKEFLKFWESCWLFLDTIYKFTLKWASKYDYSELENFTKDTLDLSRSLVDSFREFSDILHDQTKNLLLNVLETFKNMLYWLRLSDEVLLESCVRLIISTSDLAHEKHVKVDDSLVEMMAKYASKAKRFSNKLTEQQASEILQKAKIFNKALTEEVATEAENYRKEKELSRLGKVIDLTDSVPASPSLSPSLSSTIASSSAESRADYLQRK

T2: TAP-Sen1ΔNTD (Sen1 lacking the N-terminal domain, TAP-tagged, expressed from pGAL1) (S. cerevisiae) (UniProt Q00416)
T2 sequence: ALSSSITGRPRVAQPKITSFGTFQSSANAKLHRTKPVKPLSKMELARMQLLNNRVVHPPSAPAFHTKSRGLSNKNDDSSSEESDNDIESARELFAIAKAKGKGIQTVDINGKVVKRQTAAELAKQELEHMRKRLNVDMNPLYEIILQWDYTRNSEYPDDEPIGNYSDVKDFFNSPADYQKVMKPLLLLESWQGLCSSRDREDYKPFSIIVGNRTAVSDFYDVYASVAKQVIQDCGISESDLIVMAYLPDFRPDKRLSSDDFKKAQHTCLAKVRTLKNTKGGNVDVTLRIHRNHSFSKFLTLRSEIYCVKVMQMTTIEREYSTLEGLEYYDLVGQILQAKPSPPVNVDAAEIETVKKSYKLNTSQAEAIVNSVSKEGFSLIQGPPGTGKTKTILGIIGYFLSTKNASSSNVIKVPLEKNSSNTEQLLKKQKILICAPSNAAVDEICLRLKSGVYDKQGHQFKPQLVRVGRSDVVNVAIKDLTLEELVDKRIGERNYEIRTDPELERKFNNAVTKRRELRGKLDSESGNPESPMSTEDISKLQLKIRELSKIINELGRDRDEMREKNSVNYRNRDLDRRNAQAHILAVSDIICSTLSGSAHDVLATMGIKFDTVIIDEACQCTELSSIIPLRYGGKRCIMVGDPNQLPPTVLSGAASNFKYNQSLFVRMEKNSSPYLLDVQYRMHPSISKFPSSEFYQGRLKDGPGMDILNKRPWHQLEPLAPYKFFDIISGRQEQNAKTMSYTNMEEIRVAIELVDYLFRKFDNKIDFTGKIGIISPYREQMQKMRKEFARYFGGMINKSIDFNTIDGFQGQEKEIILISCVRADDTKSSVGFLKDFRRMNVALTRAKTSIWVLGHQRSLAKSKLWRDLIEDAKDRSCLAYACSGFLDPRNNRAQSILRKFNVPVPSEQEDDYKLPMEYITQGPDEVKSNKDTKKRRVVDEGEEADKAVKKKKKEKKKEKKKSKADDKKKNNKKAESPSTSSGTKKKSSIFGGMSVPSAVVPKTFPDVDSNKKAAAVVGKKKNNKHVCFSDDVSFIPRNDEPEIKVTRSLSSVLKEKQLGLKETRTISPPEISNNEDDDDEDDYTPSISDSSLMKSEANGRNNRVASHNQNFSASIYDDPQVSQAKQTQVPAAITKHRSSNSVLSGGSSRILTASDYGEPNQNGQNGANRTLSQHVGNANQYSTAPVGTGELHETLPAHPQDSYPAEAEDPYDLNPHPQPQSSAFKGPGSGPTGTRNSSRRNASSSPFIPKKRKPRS

B1: Nrd1 (protein, UniProt P53617 1-575)
chain: MQQDDDFQNFVATLESFKDLKSGISGSRIKKLTTYALDHIDIESKIISLIIDYSRLCPDSHKLGSLYIIDSIGRAYLDETRSNSNSSSNKPGTCAHAINTLGEVIQELLSDAIAKSNQDHKEKIRMLLDIWDRSGLFQKSYLNAIRSKCFAMDISNNTANTASQQLSLDPKQRSKQILSNLKKSPPLNLNISLPTDLTSTDPAKQQAALFQVIAALQKHFKTLPSHTSVGTVAPPQAHTITEYGSRRERERERERYNSRRNRSRSPPAPFSQPSTGRKDRYPSVAQDQYSIGAPNTTFGTNNHHLYPDELNVSNNPHYRPKPVSYDSTLPPDHIKVYSRTLFIGGVPLNMKEWDLANVLKPFAEVQSVILNNSRKHAFVKVYSRHEAENVLQNFNKDGALPLRTRWGVGFGPRDCCDYQHGYSIIPMHRLTDADKKWSVSAQWGGTSGQPLVTGIVFEEPDIIVGEGVSSKAISQKMPTDSGRNGPRSGKPNKSGSISSISPVPYGNAPLASPPPQQYVQPMMQQPYGYAPNQPLPSQGPAAAAPPVPQQQFDPTAQLNSLMNMLNQQQQQQQQS
B2: Rpa135 (protein, UniProt P22138 1-1203)
chain: MSKVIKPPGQARTADFRTLERESRFINPPKDKSAFPLLQEAVQPHIGSFNALTEGPDGGLLNLGVKDIGEKVIFDGKPLNSEDEISNSGYLGNKLSVSVEQVSIAKPMSNDGVSSAVERKVYPSESRQRLTSYRGKLLLKLKWSVNNGEENLFEVRDCGGLPVMLQSNRCHLNKMSPYELVQHKEESDEIGGYFIVNGIEKLIRMLIVQRRNHPMAIIRPSFANRGASYSHYGIQIRSVRPDQTSQTNVLHYLNDGQVTFRFSWRKNEYLVPVVMILKALCHTSDREIFDGIIGNDVKDSFLTDRLELLLRGFKKRYPHLQNRTQVLQYLGDKFRVVFQASPDQSDLEVGQEVLDRIVLVHLGKDGSQDKFRMLLFMIRKLYSLVAGECSPDNPDATQHQEVLLGGFLYGMILKEKIDEYLQNIIAQVRMDINRGMAINFKDKRYMSRVLMRVNENIGSKMQYFLSTGNLVSQSGLDLQQVSGYTVVAEKINFYRFISHFRMVHRGSFFAQLKTTTVRKLLPESWGFLCPVHTPDGSPCGLLNHFAHKCRISTQQSDVSRIPSILYSLGVAPASHTFAAGPSLCCVQIDGKIIGWVSHEQGKIIADTLRYWKVEGKTPGLPIDLEIGYVPPSTRGQYPGLYLFGGHSRMLRPVRYLPLDKEDIVGPFEQVYMNIAVTPQEIQNNVHTHVEFTPTNILSILANLTPFSDFNQSPRNMYQCQMGKQTMGTPGVALCHRSDNKLYRLQTGQTPIVKANLYDDYGMDNFPNGFNAVVAVISYTGYDMDDAMIINKSADERGFGYGTMYKTEKVDLALNRNRGDPITQHFGFGNDEWPKEWLEKLDEDGLPYIGTYVEEGDPICAYFDDTLNKTKIKTYHSSEPAYIEEVNLIGDESNKFQELQTVSIKYRIRRTPQIGDKFSSRHGQKGVCSRKWPTIDMPFSETGIQPDIIINPHAFPSRMTIGMFVESLAGKAGALHGIAQDSTPWIFNEDDTPADYFGEQLAKAGYNYHGNEPMYSGATGEELRADIYVGVVYYQRLRHMVNDKFQVRSTGPVNSLTMQPVKGRKRHGGIRVGEMERDALIGHGTSFLLQDRLLNSSDYTQASVCRECGSILTTQQSVPRIGSISTVCCRRCSMRFEDAKKLLTKSEDGEKIFIDDSQIWEDGQGNKFVGGNETTTVAIPFVLKYLDSELSAMGIRLRYNVEPK
B3: Rpc160 (protein, UniProt P04051 1-1460)
chain: MKEVVVSETPKRIKGLEFSALSAADIVAQSEVEVSTRDLFDLEKDRAPKANGALDPKMGVSSSSLECATCHGNLASCHGHFGHLKLALPVFHIGYFKATIQILQGICKNCSAILLSETDKRQFLHELRRPGVDNLRRMGILKKILDQCKKQRRCLHCGALNGVVKKAAAGAGSAALKIIHDTFRWVGKKSAPEKDIWVGEWKEVLAHNPELERYVKRCMDDLNPLKTLNLFKQIKSADCELLGIDATVPSGRPETYIWRYLPAPPVCIRPSVMMQDSPASNEDDLTVKLTEIVWTSSLIKAGLDKGISINNMMEHWDYLQLTVAMYINSDSVNPAMLPGSSNGGGKVKPIRGFCQRLKGKQGRFRGNLSGKRVDFSGRTVISPDPNLSIDEVAVPDRVAKVLTYPEKVTRYNRHKLQELIVNGPNVHPGANYLLKRNEDARRNLRYGDRMKLAKNLQIGDVVERHLEDGDVVLFNRQPSLHRLSILSHYAKIRPWRTFRLNECVCTPYNADFDGDEMNLHVPQTEEARAEAINLMGVKNNLLTPKSGEPIIAATQDFITGSYLISHKDSFYDRATLTQLLSMMSDGIEHFDIPPPAIMKPYYLWTGKQVFSLLIKPNHNSPVVINLDAKNKVFVPPKSKSLPNEMSQNDGFVIIRGSQILSGVMDKSVLGDGKKHSVFYTILRDYGPQEAANAMNRMAKLCARFLGNRGFSIGINDVTPADDLKQKKEELVEIAYHKCDELITLFNKGELETQPGCNEEQTLEAKIGGLLSKVREEVGDVCINELDNWNAPLIMATCGSKGSTLNVSQMVAVVGQQIISGNRVPDGFQDRSLPHFPKNSKTPQSKGFVRNSFFSGLSPPEFLFHAISGREGLVDTAVKTAETGYMSRRLMKSLEDLSCQYDNTVRTSANGIVQFTYGGDGLDPLEMEGNAQPVNFNRSWDHAYNITFNNQDKGLLPYAIMETANEILGPLEERLVRYDNSGCLVKREDLNKAEYVDQYDAERDFYHSLREYINGKATALANLRKSRGMLGLLEPPAKELQGIDPDETVPDNVKTSVSQLYRISEKSVRKFLEIALFKYRKARLEPGTAIGAIGAQSIGEPGTQMTLKTFHFAGVASMNVTLGVPRIKEIINASKVISTPIINAVLVNDNDERAARVVKGRVEKTLLSDVAFYVQDVYKDNLSFIQVRIDLGTIDKLQLELTIEDIAVAITRASKLKIQASDVNIIGKDRIAINVFPEGYKAKSISTSAKEPSENDVFYRMQQLRRALPDVVVKGLPDISRAVINIRDDGKRELLVEGYGLRDVMCTDGVIGSRTTTNHVLEVFSVLGIEAARYSIIREINYTMSNHGMSVDPRHIQLLGDVMTYKGEVLGITRFGLSKMRDSVLQLASFEKTTDHLFDAAFYMKKDAVEGVSECIILGQTMSIGTGSFKVVKGTNISEKDLVPKRCLFESLSNEAALKAN

Assays:
[1] = target: TAP-Sen1 (full-length Sen1 fused to a tandem affinity purification tag, expressed from pGAL1) (S. cerevisiae) (UniProt Q00416); test: affinity purification with mass spectrometry; TAP-tagged Sen1 versions (full length, ΔNTD, NTD) overexpressed from pGAL1 as baits; yeast lysates in 10 mM sodium phosphate pH 7.5, 200 mM sodium acetate, 0.25% NP-40, treated with RNase A; IgG Sepharose; elution by TEV cleavage; untagged control
[2] = target: T1, TAP-NTD (isolated N-terminal domain of Sen1, TAP-tagged, expressed from pGAL1) (S. cerevisiae); test: as above
[3] = target: T2, TAP-Sen1ΔNTD (Sen1 lacking the N-terminal domain, TAP-tagged, expressed from pGAL1) (S. cerevisiae); test: as above
[4] = target: Sen1-TAP (wild-type Sen1 fused to a TAP tag) (S. cerevisiae) (UniProt Q00416); test: affinity purification with mass spectrometry; Sen1-TAP or Sen1-3–TAP as bait; yeast lysates; untagged control
[5] = target: Sen1-3–TAP (Sen1 W773A E774A W777A fused to a TAP tag) (S. cerevisiae) (UniProt Q00416); test: as above

Binder | binding [1] | binding [2] | binding [3] | binding [4] | binding [5]
B1 | binds | no binding | binds | binds | binds
B2 | binds |  | binds | binds | binds
B3 | binds | binds | no binding | binds | 
